From PubChem BioAssay AID504467 (National Center for Advancing Translational Sciences (NCATS), 2011)
In all, about 330,000 compounds went through this assay and about 7,700 (2.3%) were called active. The inconclusive results got no clear call from the source; some entries with a clear call stand among them for comparison. Calls come from the whole dose curve; as a rule, active = well fitted inhibition curve with a large enough effect; inconclusive = small, poorly fitted or top-dose-only effect, or effect the other way; inactive = flat fitted curve, though single readings scatter. A potency beside an inconclusive call is a rough fit, not a confirmed value.

Assay: qHTS screen for small molecules that inhibit ELG1-dependent DNA repair in human embryonic kidney (HEK293T) cells expressing luciferase-tagged ELG1; note: nearly all actives have a fitted effect of over 55% in size
Conditions: HEK293T ELG1-luciferase reporter, luminescence, 16 h, DNA damage induced by 5-fluorouridine; activity change, negative = inhibition: at 46.1 µM (top of the series)
Method in brief: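 5-Fluorouridine DNA damage + compound/DMSO, 2,000 cells/well, 16 h, 37 °C/5% CO2. ONE-Glo, 30 min RT, luminescence. Readout = decrease in reporter signal.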
% is set by controls: 0 for no effect and ±100 for the full control effect; potency is the fitted concentration of half-maximal effect.

| SMILES | Potency | activity change, negative = inhibition |
| --- | --- | --- |
| CC(C)(C)c1ccc(C(=O)Nc2ccc(N3CCOCC3)cc2)cc1 | active: 18.4 µM | – |
| O=C(CCCN1C(=O)/C(=C/c2cccc(Br)c2)SC1=S)NCCCN1CCOCC1 | inconclusive: 29.1 µM [inhibitor, single point] | – |
| COc1ccc(/C=N/Nc2nc3ccccc3[nH]2)cc1OC | inconclusive: 10.3 µM [activator, partial curve] | – |
| Cc1ccc(S(=O)(=O)N2CCOCC2)cc1NC(=O)COc1ccc(-c2nnco2)cc1 | – | inactive: -25.6% |
| Cc1ccc(CSc2nnc(-c3cccs3)n2C)cc1 | inconclusive: 18.4 µM [activator, single point] | – |
| C/C(=N\NC(=O)c1cccc(O)c1)c1cccc(NC(=O)c2ccc(F)cc2)c1 | inconclusive: 20.6 µM [activator, partial curve] | – |
| COc1cc2c(cc1OC)C1Cc3ccc(OC)c(OC)c3CN1CC2 (centres undefined) | inconclusive: 18.4 µM [inhibitor, partial curve, poor fit] | – |
| Cc1cc(Cl)ccc1NC(=S)NCCC(c1ccccc1)c1ccccc1 | inconclusive: 29.1 µM [inhibitor, single point] | – |
| O=C(c1ccc(N2C(=O)c3ccccc3C2=O)cc1)N1CCCCC1 | – | inactive: 9.58% |
| CCN(CC)S(=O)(=O)c1ccc(Cl)c(NC(=O)COC(=O)c2cc(-c3ccccc3Cl)nc3ccccc23)c1 | inconclusive: 20.6 µM [inhibitor, single point] | – |
| O=c1ccc2ccccc2n1Cc1cccc(F)c1 | inconclusive: 29.1 µM [activator, single point] | – |
| CCCOC(=O)c1ccc(NC(=O)/C=C/c2cccs2)cc1 | inconclusive: 16.4 µM [activator, partial curve, poor fit] | – |
| CNC(=O)c1sccc1SCc1ccc(Cl)cc1Cl | – | inactive: -10.9% |
| Cn1nccc1C(=O)Nc1cccc(C(F)(F)F)c1 | – | inactive: 1.06% |
| O=C(Nc1ccc(-c2ccc(N3CCCCC3)nn2)cc1)c1ccco1 | inconclusive: 9.2 µM [activator, single point] | – |
| Cc1ccc(C(=O)N(Cc2cccnc2)Cc2cc3cc(C)ccc3n3nnnc23)cc1 | active: 20.6 µM | – |
| COc1cc(NC(=O)c2ccco2)c(OC)cc1NC(=O)c1cc(OC)c(OC)c(OC)c1 | inconclusive: 5.17 µM [inhibitor, partial curve] | – |
| Cc1nc(COc2ccc(C(=O)Nc3ccccc3N3CCOCC3)cc2)cs1 | – | inactive: -12.7% |
| COc1ccc(OC)c(N(CC(=O)Nc2cccnc2)S(=O)(=O)c2ccc(C)cc2)c1 | inconclusive: 29.1 µM [inhibitor, single point] | – |
| CC(NC(=O)c1cc(F)c(F)cc1Cl)c1ccncc1 (centres undefined) | – | inactive: 8.1% |
| CCNc1nc(NCC)nc(SCCOC(=O)Nc2ccc(Cl)cc2Cl)n1 | inconclusive: 29.1 µM [inhibitor, single point] | – |
| Fc1cccc(Cl)c1CSc1ccc(-c2ccco2)nn1 | inconclusive: 20.6 µM [activator, partial curve] | – |
| COc1ccc(-c2nnc(NC(=O)c3ccco3)s2)cc1 | inconclusive: 10.3 µM [activator, partial curve] | – |

| SMILES | Potency | activity change, negative = inhibition |
| --- | --- | --- |
| O=C(NCCC1CC1(Cl)Cl)c1ccc([N+](=O)[O-])cc1 (centres undefined) | inconclusive: 3.26 µM [activator, partial curve] | – |
| O=C(CSc1nc2ccccc2c(=O)n1-c1ccccc1)N1CCc2ccccc2C1 | inconclusive: 29.1 µM [inhibitor, single point] | – |
| Fc1ccc(/C=N/NC2=Nc3cccc4cccc2c34)cc1 | inconclusive: 5.8 µM [activator, partial curve] | – |
| Cc1nc(SCC(=O)Nc2ccnc3ccccc23)n[nH]1 | inconclusive: 13 µM [inhibitor, partial curve, poor fit] | – |
| O=C(CCSc1ccccc1Cl)Nc1cccc([N+](=O)[O-])c1 | inconclusive: 16.4 µM [activator, partial curve] | – |
| COc1cc(C(=O)OCC(=O)N(CC(C)C)C2CCS(=O)(=O)C2)cc(OC)c1C (centres undefined) | – | inactive: 0% |
| O=C(Nc1ccc(Cl)cc1C(=O)NCc1cccnc1)c1ccc(Cl)cc1Cl | inconclusive: 29.1 µM [inhibitor, single point] | – |
| O=C(CC1C(=O)NCCN1Cc1ccc(-c2ccccc2)cc1)NCC1CC1 (centres undefined) | – | inactive: 3.24% |
| COc1cccc(NC(=O)c2c(C)nn(-c3ccccc3)c2Cl)c1 | inconclusive: 6.51 µM [activator, partial curve] | – |
| O=C(CSC1=NCCN1)NC1CCCCCC1 | inconclusive: 18.4 µM [inhibitor, single point] | – |
| O=C(CSc1nccn1Cc1ccccc1)Nc1ccccc1 | inconclusive: 23.1 µM [inhibitor, partial curve] | – |
| CCCOc1ccccc1N/C(N)=N/c1nc(C)cc(C)n1 | inconclusive: 14.6 µM [inhibitor, partial curve, poor fit] | – |
| COc1ccc(N=C2O/C(=C/c3sc(=S)n(CC4CCCO4)c3O)N=C2C#N)cc1 (centres undefined) | – | inactive: -4.87% |
| c1ccc(OCC2CCNCC2)nc1 | inconclusive: 5.8 µM [activator, partial curve, poor fit] | – |
| O=C(COc1ccc(S(=O)(=O)NC2CCCCC2)cc1Cl)NCc1cccnc1 | – | inactive: -0.397% |
| CC(C)COc1ccc(C(=O)NCc2ccco2)cc1 | inconclusive: 16.4 µM [activator, single point] | – |
| COc1ccc(CNC(=O)CN(c2ccccc2)S(=O)(=O)c2ccccc2[N+](=O)[O-])cc1 | inconclusive: 29.1 µM [inhibitor, single point] | – |
| N=c1c2c3c(sc2ncn1Cc1ccco1)CCCCC3 | inconclusive: 16.4 µM [activator, partial curve] | – |
| CC(=O)c1ccc(S(=O)(=O)Nc2cccc(-c3cn4c(n3)SCC4)c2)cc1 | inconclusive: 23.1 µM [inhibitor, single point] | – |
| COc1ccc(C(=O)NCC(c2ccco2)N2CCc3ccccc32)cc1OC (centres undefined) | inconclusive: 4.61 µM [inhibitor, single point] | – |
| O=C(C1CCN(S(=O)(=O)c2ccccc2F)CC1)N1CCc2ccccc21 | inconclusive: 35.5 µM [inhibitor, single point] | – |
| COc1ccc2[nH]c(=O)c(CN(Cc3nnnn3Cc3ccco3)C3CCCCC3)cc2c1 | inconclusive: 29.1 µM [inhibitor, partial curve, poor fit] | – |
| Cc1ccc2nc(SCC(=O)c3ccc(Cl)s3)[nH]c2c1 | inconclusive: 16.4 µM [activator, single point] | – |

| SMILES | Potency | activity change, negative = inhibition |
| --- | --- | --- |
| Cc1cc(C(=O)CSc2n[nH]c(-c3ccccc3F)n2)c(C)n1Cc1cccs1 | – | inactive: 4% |
| CCN(CC)CCCN(C(=O)c1cccs1)c1nc(-c2ccc(OC)cc2)cs1 | – | inactive: -3.87% |
| COc1cc(OC)c2cc(C(=O)N/N=C/c3cccc(OC)c3O)[nH]c2c1 | inconclusive: 4.11 µM [inhibitor, single point] | – |
| CCC(C)Sc1cccc(-c2nc3cnccn3c2NC2CCCCC2)c1 (centres undefined) | inconclusive: 23.1 µM [inhibitor, single point] | – |
| Cc1cc2ncc(-c3ccc(Cl)cc3)cn2n1 | inconclusive: 5.17 µM [activator, partial curve] | – |
| CCOC(=O)CSc1nc2c(sc(=S)n2-c2ccccc2)c(=O)n1-c1ccc(OC)cc1OC | inconclusive: 18.3 µM [inhibitor, partial curve, poor fit] | – |
| CC(=O)Oc1cc2oc(=O)cc(C)c2cc1Cl | inconclusive: 23.1 µM [inhibitor, partial curve] | – |
| Cc1ccc(NS(=O)(=O)c2ccc3c(c2)c(=O)n(C)c(=O)n3C)cc1F | inconclusive: 16.4 µM [inhibitor, partial curve] | – |
| Cc1ccc2[nH]c3c(N4CCN(Cc5ccccc5)CC4)ncnc3c2c1 | inconclusive: 20.6 µM [inhibitor, partial curve] | – |
| CC1(C)Cc2c(c(N3CCOCC3)nc3sc4c(NCC5CCCO5)nnnc4c23)CS1 (centres undefined) | inconclusive: 23.1 µM [inhibitor, partial curve, poor fit] | – |
| CC(C)(C)C(=O)Nc1ccc(C(=O)Nc2cccnc2)cc1 | inconclusive: 18.4 µM [activator, partial curve] | – |
| C/C(=N\NC(=O)c1ccccc1-n1cccc1)C1CC1 | inconclusive: 18.4 µM [activator, partial curve, poor fit] | – |
| CCOC(=O)c1c(C)[nH]c(C)c1C(=O)COC(=O)/C=C/c1ccc(OC)cc1 | inconclusive: 3.26 µM [inhibitor, full curve] | – |
| Cc1cc(C)nc(NS(=O)(=O)c2ccc(NC(=S)NC(=O)CC(C)C)cc2)n1 | – | inactive: 0.138% |
| C/C(=N/NC(=O)CCc1ccccc1)c1ccc2c(c1)OCO2 | – | inactive: -1.22% |
| O=C(N[C@H]1CC1c1ccccc1)c1ccc([N+](=O)[O-])cc1 (some centres undefined) | inconclusive: 4.11 µM [activator, full curve] | – |
| COc1cccc(-c2ccc3ncnc(NCc4cccnc4)c3c2)c1 | active: 5.17 µM | – |
| CC#CC[N+](C)(C)CCCCCCCCCCCC | – | inactive: -20.4% |
| COc1ccc(OC)c(NC(=O)c2cc(OC(C)=O)cc(C(=O)Nc3cc(OC)ccc3OC)c2)c1 | inconclusive: 11.2 µM [inhibitor, partial curve, poor fit] | – |
| CCN(CC)S(=O)(=O)c1ccc(N2CCOCC2)c(NC(=O)c2cc(C)cc(C)c2)c1 | active: 8.2 µM | – |
| CCOC(=O)c1c(NC(=O)C2=C(C)NC(=S)NC2c2ccc(F)cc2)sc(C)c1C (centres undefined) | active: 7.31 µM | – |
| CCOc1ccccc1NC(=O)c1cc(SC)ccc1Cl | – | inactive: -8.33% |
| Cc1ccc(C(=O)OCc2nnc(-c3ccccc3)o2)cc1S(=O)(=O)N1CCOCC1 | – | inactive: 7.3% |

Quoted at random: 5 entries already listed

| SMILES | Potency | activity change, negative = inhibition |
| --- | --- | --- |
| COc1ccc(C(=O)NCC(c2ccco2)N2CCc3ccccc32)cc1OC (centres undefined) | inconclusive: 4.61 µM [inhibitor, single point] | – |
| CC1(C)Cc2c(c(N3CCOCC3)nc3sc4c(NCC5CCCO5)nnnc4c23)CS1 (centres undefined) | inconclusive: 23.1 µM [inhibitor, partial curve, poor fit] | – |
| Fc1cccc(Cl)c1CSc1ccc(-c2ccco2)nn1 | inconclusive: 20.6 µM [activator, partial curve] | – |
| O=C(COc1ccc(S(=O)(=O)NC2CCCCC2)cc1Cl)NCc1cccnc1 | – | inactive: -0.397% |
| N=c1c2c3c(sc2ncn1Cc1ccco1)CCCCC3 | inconclusive: 16.4 µM [activator, partial curve] | – |
